From the supplement of paper PMC9938546
Where a name gives a salt, the structure may show the parent alone. The list shows a part of the results. Baselines shift from plate to plate; read single values as rough.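 HCT116-GFP, a KRAS-mutant, microsatellite-unstable human colorectal cancer line, constantly expresses green fluorescent protein; immune cells were from healthy donors. Cancer cell survival was tracked by live-cell imaging of green fluorescence, and activated immune cells by themselves reduced survival to roughly half.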

system: HCT116-GFP; assay: HCT116-GFP viability (GFP intensity) relative to untreated HCT116-GFP monoculture control, co-culture with activated PBMCs; higher = less cancer cell killing; conditions: culture: co-culture with anti-CD3/IL2 activated PBMCs 1:1; 10 µM; 72 h

SMILES | HCT116-GFP viability [%]
Cc1cc(C(C#N)c2ccc(Cl)cc2)c(Cl)cc1NC(=O)c1cc(I)cc(I)c1O (stereo not given) [Closantel] | 31.1
C[C@@H]1C[C@@H]([C@H](O)CC2CC(=O)NC(=O)C2)C(=O)[C@@H](C)C1 [Cycloheximide] | 5.68
O=c1[nH]oc2c1CCNC2 [THIP Hydrochloride] | 50.1
NCC1(CC(=O)O)CCCCC1 [Gabapentin] | 61.6
CC(N)C(O)c1ccccc1 (stereo not given) [Phenylpropanolamine hydrochloride] | 28.7
O=C(CCCN1CCC2(CC1)C(=O)NCN2c1ccccc1)c1ccc(F)cc1 [Spiperone] | 31.2
C=C1CC[C@@]2(O)[C@H]3Cc4ccc(O)c5c4[C@@]2(CCN3CC2CC2)[C@H]1O5 [Nalmefene hydrochloride] | 29.6
O=[N+]([O-])O[C@H]1CO[C@H]2[C@@H]1OC[C@H]2O[N+](=O)[O-] [Isosorbide dinitrate] | 75.8
CC(O)(CS(=O)(=O)c1ccc(F)cc1)C(=O)Nc1ccc(C#N)c(C(F)(F)F)c1 (stereo not given) [Bicalutamide] | 69.2
CCOC(=O)c1cncn1[C@H](C)c1ccccc1 [Etomidate] | 62.7
CC(C)c1cccc(C(C)C)c1O [Propofol] | 65.6
C[C@]12CC[C@H](O)C[C@H]1CC[C@@H]1[C@@H]2CC[C@]2(C)[C@@H](C3=CC(=O)OC3)CC[C@]12O [Digitoxigenin] | 0.223
CC(=O)O[C@H]1CC[C@@]2(C)C(=CC[C@@H]3[C@@H]2CC[C@]2(C)C(=O)CC[C@@H]32)C1 [Dehydroisoandosterone 3-acetate] | 72.2
O=C(NCNC(=O)NC1C(=O)NC(=O)N1CO)NC1C(=O)NC(=O)N1CO (stereo not given) [Imidurea] | 46.7
CN1C[C@H](CNC(=O)OCc2ccccc2)C[C@@H]2c3cccc4c3c(cn4C)C[C@H]21 [Metergoline] | 63.8
Oc1ccc2c3c1O[C@H]1[C@@H](O)CC[C@@]4(O)[C@@H](C2)N(CC2CCC2)CC[C@]314 [Nalbuphine hydrochloride] | 44.8
COc1cc2c(c(OC)c1OC)-c1ccc(OC)c(=O)cc1[C@@H](NC(C)=O)CC2 [Colchicine] | 2.08
c1ccc2c(c1)OCC(C1=NCCN1)O2 (stereo not given) [Idazoxan hydrochloride] | 51.6
CCCCCC[C@H]1C(=O)O[C@H](C)[C@H](NC(=O)c2cccc(NC=O)c2O)C(=O)O[C@@H](C)[C@@H]1OC(=O)CC(C)C [Antimycin A] | 26.5
CC[N+]1(C)CCCC(OC(=O)C(O)(c2ccccc2)c2ccccc2)C1 (stereo not given) [Pipenzolate bromide] | 93.1
C[C@]12COC(=O)C[C@@H]1CC[C@@H]1[C@@H]2CC[C@@]2(C)[C@H]1CC[C@]2(C)O [Oxandrolone] | 53.1
O=P1(N(CCCl)CCCl)NCCCO1 (stereo not given) [Cyclophosphamide] | 35.8
CN1C(=O)CCS(=O)(=O)C1c1ccc(Cl)cc1 (stereo not given) [Chlormezanone] | 49.1
CC(=O)[C@H]1CC[C@H]2[C@@H]3CC[C@H]4C[C@H](O)CC[C@]4(C)[C@H]3C(=O)C[C@]12C [Alfaxalone] | 50.8
C=C1C[C@@H]2[C@H](CC[C@]3(C)C(=O)CC[C@@H]23)[C@@]2(C)C=CC(=O)C=C12 [Exemestane] | 60.1

SMILES | HCT116-GFP viability [%]
C[C@]12C/C(=C/O)C(=O)C[C@@H]1CC[C@@H]1[C@@H]2CC[C@@]2(C)[C@H]1CC[C@]2(C)O [Oxymetholone] | 31.3
CCCC(C)(COC(N)=O)COC(=O)NC(C)C (stereo not given) [Carisoprodol] | 49.4
CCC1(C)CC(=O)NC(=O)C1 [Bemegride] | 69.2
OC(c1ccccc1)(c1ccccc1)C1CCNCC1 [Azacyclonol] | 52.9
NC(=O)OCCCc1ccccc1 [Phenprobamate] | 42
C[N+]1(C)CCCC(OC(=O)C(O)(c2ccccc2)c2ccccc2)C1 (stereo not given) [Mepenzolate bromide] | 72.4
C[C@@H]1CN([C@H]2CC[C@](C#N)(c3ccc(F)cc3)CC2)CC[C@]1(C(=O)O)c1ccccc1 [Levocabastine hydrochloride] | 35.4
C=CCC1(CC(C)C)C(=O)NC(=O)NC1=O [Butalbital] | 53.1
O=C(CCCN1CCC(n2c(=O)[nH]c3ccccc32)CC1)c1ccc(F)cc1 [Benperidol] | 44.1
COc1ccc(OC)c(C(O)C(C)N)c1 (stereo not given) [Methoxamine hydrochloride] | 52
CCC(=O)O[C@H]1CC[C@H]2[C@@H]3CCC4=CC(=O)CC[C@]4(C)[C@H]3CC[C@]12C [Testosterone propionate] | 60
NCCCNCCSP(=O)(O)O [Amifostine] | 27.8
CC1OC(OC2/C=C/C=C/C=C/C=C/CC/C=C/C=C/[C@H](C)[C@@H](O)[C@@H](C)[C@H](C)OC(=O)CC(O)CC(O)CC(O)CCC(O)C(O)C[C@]3(O)CC(O)C(C(=O)O)C(C2)O3)C(O)C(N)C1O (stereo not given in full) [Nystatine] | 42.6
O=c1[nH]c2ccccc2n1C1CCN(CCCC(c2ccc(F)cc2)c2ccc(F)cc2)CC1 [Pimozide] | 28.9
C[C@]12CC[C@@H](O)C[C@H]1CC[C@@H]1[C@@H]2CC[C@]2(C)C(=O)CC[C@@H]12 [3-alpha-Hydroxy-5-beta-androstan-17-one] | 64.4
C#CCN(C)[C@H](C)Cc1ccccc1 [Selegiline hydrochloride] | 58.4
C[C@@H]1O[C@@H](O[C@@H]2C=C3CC[C@@H]4[C@H](CC[C@]5(C)[C@@H](c6ccc(=O)oc6)CC[C@]45O)[C@@]3(C)CC2)[C@H](O)[C@H](O)[C@H]1O [Proscillaridin A] | 0.346
CN(C)C(=O)Oc1ccc[n+](C)c1 [Pyridostigmine iodide] | 30.1
CNC(=O)Oc1ccc2c(c1)[C@]1(C)CCN(C)[C@@H]1N2C [Eserine hemisulfate salt] | 46.7
CN(C)C(=O)Oc1cccc([N+](C)(C)C)c1 [Neostigmine bromide] | 29
COc1ccc(C(CN(C)C)C2(O)CCCCC2)cc1 (stereo not given) [Venlafaxine] | 80.8
CCNCC(O)c1cccc(O)c1 (stereo not given) [Etilefrine hydrochloride] | 46
CC(C)(N)Cc1ccccc1 [Phentermine hydrochloride] | 41.1
CC(C)C[C@H]1C(=O)N2CCC[C@H]2[C@]2(O)O[C@](NC(=O)[C@@H]3C=C4c5cccc6[nH]c(Br)c(c56)C[C@H]4N(C)C3)(C(C)C)C(=O)N12 [Bromocryptine mesylate] | 23.4
CN1[C@@H]2CC[C@H]1C[C@@H](OC(=O)C(CO)c1ccccc1)C2 (stereo not given in full) [Atropine sulfate monohydrate] | 17.7

SMILES | HCT116-GFP viability [%]
CCC1=C[C@H]2CN3CCc4c([nH]c5ccccc45)[C@](C(=O)OC)(C2)[C@H]13 [Catharanthine] | 44.1
CNC(C)(C)Cc1ccccc1 [Mephentermine hemisulfate] | 75.5
C[C@]12CCC(=O)C(O)=C1CC[C@@H]1[C@@H]2CC[C@]2(C)C(=O)CC[C@@H]12 [Formestane] | 59.8
C[N+]12CCC(CC1)C(OC(=O)C(O)(c1ccccc1)c1ccccc1)C2 (stereo not given) [Clidinium bromide] | 80.1
C[C@@]12N[C@@H](Cc3ccccc31)c1ccccc12 [(-)-MK 801 hydrogen maleate] | 63.8
CC(=O)OCC1=C(C(=O)O)N2C(=O)[C@@H](N)[C@H]2SC1 [Cephalosporanic acid, 7-amino] | 60.4
CO[C@]12C[C@@H](COC(=O)c3cncc(Br)c3)CN(C)[C@@H]1Cc1cn(C)c3cccc2c13 [Nicergoline] | 45.5
CC(C)C[C@H](CN)CC(=O)O [Pregabalin] | 35.3
CC(C)(C)NCC(O)c1ccccc1Cl (stereo not given) [Tulobuterol] | 35.9
C[C@]12Cc3c[nH]nc3C[C@@H]1CC[C@@H]1[C@@H]2CC[C@@]2(C)[C@H]1CC[C@]2(C)O [Stanozolol] | 65.6
C[C@@H]1CC[C@H]2[C@@H](C)C(=O)O[C@@H]3O[C@@]4(C)CC[C@@H]1[C@]32OO4 [Artemisinin] | 33.9
CCC1(c2cccc(O)c2)CCCCN(C)C1 (stereo not given) [Meptazinol hydrochloride] | 46
COc1cc([C@@H]2c3cc4c(cc3[C@H](O)[C@H]3COC(=O)[C@H]23)OCO4)cc(OC)c1OC [Podophyllotoxin] | 8.6
CCN(C(C)=O)c1cccc(-c2ccnc3c(C#N)cnn23)c1 [Zaleplon] | 57.9
NCCc1c[nH]c2ccc(O)cc12 [Serotonin hydrochloride] | 49.2
CCC(COC(=O)c1cc(OC)c(OC)c(OC)c1)(c1ccccc1)N(C)C (stereo not given) [Trimebutine] | 37.4
NC(=O)C[S+]([O-])C(c1ccccc1)c1ccccc1 (stereo not given) [Modafinil] | 47.9
CN1CCN(C(=O)OC2c3nccnc3C(=O)N2c2ccc(Cl)cn2)CC1 (stereo not given) [Zopiclone] | 44.4
Clc1ccc(C(OCCN2CCCCC2)c2ccccc2)cc1 (stereo not given) [Cloperastine hydrochloride] | 95.2
C[C@]12CC[C@H](O)C[C@H]1CC[C@@H]1[C@@H]2C[C@@H](O)[C@]2(C)[C@@H](C3=CC(=O)OC3)CC[C@]12O [Digoxigenin] | 3.03
CC(Cc1ccccc1)NCCC(c1ccccc1)c1ccccc1 (stereo not given) [Prenylamine lactate] | 27.2
CC(=O)NC1CCSC1=O (racemic) [N-Acetyl-DL-homocysteine Thiolactone] | 67.4
Cc1cccc(C)c1NC1=NCCCS1 [Xylazine] | 30.3
NC(=O)CN1CCCC1=O [Piracetam] | 42.5
O=P1(NCCCl)OCCCN1CCCl (stereo not given) [Ifosfamide] | 80.3

As entered above:
For HCT116-GFP viability [%], `Clc1ccc(C(OCCN2CCCCC2)c2ccccc2)cc1` (stereo not given) [Cloperastine hydrochloride] shows 95.2
For HCT116-GFP viability [%], `CCC1(c2cccc(O)c2)CCCCN(C)C1` (stereo not given) [Meptazinol hydrochloride] shows 46
For HCT116-GFP viability [%], `CC(=O)NC1CCSC1=O` (racemic) [N-Acetyl-DL-homocysteine Thiolactone] shows 67.4
For HCT116-GFP viability [%], `COc1cc([C@@H]2c3cc4c(cc3[C@H](O)[C@H]3COC(=O)[C@H]23)OCO4)cc(OC)c1OC` [Podophyllotoxin] shows 8.6
For HCT116-GFP viability [%], `O=P1(NCCCl)OCCCN1CCCl` (stereo not given) [Ifosfamide] shows 80.3
